Measured values taken from article PMC7819943, “Rice protein-binding microarrays: a tool to detect cis-acting elements near promoter regions in rice”.
The list shows a part of the results.

Sequences of proteins named here, by UniProt entry; tags and fusion partners are left off.
UniProt Q0JBA9, entry or part of it: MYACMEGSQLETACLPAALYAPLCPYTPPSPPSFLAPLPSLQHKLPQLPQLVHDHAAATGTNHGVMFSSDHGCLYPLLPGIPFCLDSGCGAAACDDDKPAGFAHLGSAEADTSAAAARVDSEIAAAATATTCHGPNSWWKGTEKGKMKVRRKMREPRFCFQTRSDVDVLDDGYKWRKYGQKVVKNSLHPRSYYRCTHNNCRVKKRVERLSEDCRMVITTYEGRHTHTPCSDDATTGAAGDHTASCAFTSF

Target: OsWRKY34 (Oryza sativa, UniProt Q0JBA9 1-250)
Assay: protein-binding microarray (RPBM); PBS, 2% BSA, 51.3 ng/ul salmon testes DNA, 50 uM zinc acetate, 200 nM TF, 25 C, 1 h; high values mean tight binding
Conditions: protein: recombinant; tags: N-terminal polyhistidine and DsRed monomer fusion (pET32a); label: CyDye5-dUTP incorporated in the synthesized complementary strand; 3' TTTTT single-stranded linker to array surface; dsDNA, one strand shown
Method in brief: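 Per-feature fluorescence intensity (arbitrary units), read on an Axon 4000B scanner, is the binding signal. Transcription factors carrying an N-terminal polyhistidine tag and DsRed fusion were expressed in E. coli BL21-CodonPlus and purified on Ni–NTA. A custom Agilent array, made double-stranded by primer extension with Cy5-dUTP and blocked with 2% BSA, was incubated with 200 nM protein in PBS, 2% BSA, salmon testes DNA and 50 µM zinc acetate at 25 °C for 1 h and then washed.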

Sequence	binding signal
TTTTCCGAGAAAGTTCTTTTGGATACTCCCTCCGTCTCATCGGAGTCACCTAGTGCAG	8430 fluorescence intensity (a.u.)
ACCACACCCTCTCCCTGATTTGGCCAATAGTGTACCGGCGCGGAGTCACCTAGTGCAG	8650 fluorescence intensity (a.u.)
GGTCTATTAGCGCGTTATTAATTATGTATTTGCTATTTTTCGGAGTCACCTAGTGCAG	13200 fluorescence intensity (a.u.)
TTAGTGATCGATACTGGTCGCATTGTTATCTTGTACTCTACGGAGTCACCTAGTGCAG	8180 fluorescence intensity (a.u.)
CAAGGCTTTTTTCCGGCTTTACATTCTCTGCAACATTAATCGGAGTCACCTAGTGCAG	8330 fluorescence intensity (a.u.)
CATAGCCTCATTCTGCCTTGTTCAGTCATGCCTCGCAATGCGGAGTCACCTAGTGCAG	10100 fluorescence intensity (a.u.)
CGGTAGGGCGAGCACGGGTGGGGTTGGTGGTGATTTTTTTCGGAGTCACCTAGTGCAG	20800 fluorescence intensity (a.u.)
GTGTCCATCAATCCATCCATCCATGCTTATTTTCTCAAGACGGAGTCACCTAGTGCAG	8580 fluorescence intensity (a.u.)
TTTCGTTGTCCCTCGTCATTGCTAGACCCAACCGCCGCCACGGAGTCACCTAGTGCAG	8350 fluorescence intensity (a.u.)
TCACCGCGTACGTCACATTTACAGCTTTTGGTCGTCTATACGGAGTCACCTAGTGCAG	10200 fluorescence intensity (a.u.)
GTCGTCGCCTGCCTCTTCGTCGCCGCTCTCGTCTCCGCTCCGGAGTCACCTAGTGCAG	9880 fluorescence intensity (a.u.)
CCCTTAGCTTCTTTGTGTGGATAGATATATGACCGTTTTACGGAGTCACCTAGTGCAG	11100 fluorescence intensity (a.u.)
TTAAGTTGAAATTTTTTCCGTTGGTTTTTCATATAGTATTCGGAGTCACCTAGTGCAG	8810 fluorescence intensity (a.u.)
CAAGACATACACACTCTTACTTTCTCTCTCGTCCTACTAACGGAGTCACCTAGTGCAG	8380 fluorescence intensity (a.u.)
ATCACGATCACAACCAAAATTTGTTGTTTTCTTCACGATTCGGAGTCACCTAGTGCAG	10900 fluorescence intensity (a.u.)
TCTACTCTCTCTCTCTCTCTTTTCCTTTTCATAACTGTCTCGGAGTCACCTAGTGCAG	9070 fluorescence intensity (a.u.)
GCCGTCGACCCGTCGTCGTACTCCCGCCCACCCAGCGCCGCGGAGTCACCTAGTGCAG	8100 fluorescence intensity (a.u.)
AGCACACAACACATATGTATACTTCCTCTCTGCTTTCTCCCGGAGTCACCTAGTGCAG	8900 fluorescence intensity (a.u.)
ACATTTCCCATTTCCTTCGTGCAATCCAGATGTGCCTCCACGGAGTCACCTAGTGCAG	11200 fluorescence intensity (a.u.)
AGTGAAGGGTCTTTTTTTTATGTATTGATATGTGTGGGATCGGAGTCACCTAGTGCAG	12200 fluorescence intensity (a.u.)
TTTCATTCCAACTCTTTTTTTTCCTGTGTTACTTGTATTTCGGAGTCACCTAGTGCAG	9620 fluorescence intensity (a.u.)

Sequence	binding signal
CCCGTTTTGTTTTTTTTTAAAATTTAATGCCACGTAAGCGCGGAGTCACCTAGTGCAG	9900 fluorescence intensity (a.u.)
AAGTCATTCTTGCTTATCAATGCACCTCACATAAGGCACTCGGAGTCACCTAGTGCAG	8030 fluorescence intensity (a.u.)
AGAATACACTCTCCAGTAACCTCGTCACATTCAGTTCGAACGGAGTCACCTAGTGCAG	8160 fluorescence intensity (a.u.)
CTCGCGTTTTATCCGTTTCGAACTGCTCGTGTCGCGCCGCCGGAGTCACCTAGTGCAG	8920 fluorescence intensity (a.u.)
GCGTACTAAAAAGTCAACGGTGTCAACCATTTTAAAATGGCGGAGTCACCTAGTGCAG	12500 fluorescence intensity (a.u.)
GGGTTTGGGGTTGCGATTGGGATTGGTAGGGAGGCTGATGCGGAGTCACCTAGTGCAG	8280 fluorescence intensity (a.u.)
CAGCTATCGTTATTCTGAAGATCCACCAAGCACAATCTTACGGAGTCACCTAGTGCAG	8280 fluorescence intensity (a.u.)
GTGCCCGTGATGCTATTGTTTCATATCTGTTTCCCAATAGCGGAGTCACCTAGTGCAG	9850 fluorescence intensity (a.u.)
TTGCCAGCTTGTCTCTCTGATTTTATTATCCTTTTCTTTTCGGAGTCACCTAGTGCAG	14200 fluorescence intensity (a.u.)
GCTCCTGTGGATGTAACGCCGCAGCTCTCTTGTGTACCACCGGAGTCACCTAGTGCAG	9120 fluorescence intensity (a.u.)
TGCAGGGGAAGAGGCAAGGAGGGCAAGACCGGGGCGCAGTCGGAGTCACCTAGTGCAG	8490 fluorescence intensity (a.u.)
AGTTTGATTTACAAGTGCTTTCATATGTATGTTTGTTTTACGGAGTCACCTAGTGCAG	11000 fluorescence intensity (a.u.)
TTCCCGCGCCACGGCGCTGGACGCGCTCGTTGACTCCGTCCGGAGTCACCTAGTGCAG	9240 fluorescence intensity (a.u.)
AGATTGATCATTTGCATGTACCACTTCCCTTTTTCTCCCTCGGAGTCACCTAGTGCAG	9390 fluorescence intensity (a.u.)
CTTAGCTTGTTTTTATCAGTTCTTACCTTTCTTGATTCTCCGGAGTCACCTAGTGCAG	8070 fluorescence intensity (a.u.)
ATGTAAACTGTGTAATTAATTTTTCTTTTTATCTATATTTCGGAGTCACCTAGTGCAG	9150 fluorescence intensity (a.u.)
GTACGTCCGTCTTCTTTCGATCCGCCGTGCCTTTTCCTTCCGGAGTCACCTAGTGCAG	8610 fluorescence intensity (a.u.)
GGGGCGGATCGTGGAGGACGAGCGGTCGCCGGGGCGGCCTCGGAGTCACCTAGTGCAG	8910 fluorescence intensity (a.u.)
ATTGTTTGTCCCGTCCCTACATCACGCCAAAAGTCACAACCGGAGTCACCTAGTGCAG	11800 fluorescence intensity (a.u.)
TACAACTCAGCTCATTCCACTTCAAAAGTCTACTACTTTTCGGAGTCACCTAGTGCAG	9280 fluorescence intensity (a.u.)
CAGGATGAGACCTAAATATTGTTGTGCTGCTTTGGATTATCGGAGTCACCTAGTGCAG	8420 fluorescence intensity (a.u.)

Copied from above for reference:
Sequence	binding signal
TTGCCAGCTTGTCTCTCTGATTTTATTATCCTTTTCTTTTCGGAGTCACCTAGTGCAG	14200 fluorescence intensity (a.u.)
GCTCCTGTGGATGTAACGCCGCAGCTCTCTTGTGTACCACCGGAGTCACCTAGTGCAG	9120 fluorescence intensity (a.u.)
TGCAGGGGAAGAGGCAAGGAGGGCAAGACCGGGGCGCAGTCGGAGTCACCTAGTGCAG	8490 fluorescence intensity (a.u.)
AGTTTGATTTACAAGTGCTTTCATATGTATGTTTGTTTTACGGAGTCACCTAGTGCAG	11000 fluorescence intensity (a.u.)
TTCCCGCGCCACGGCGCTGGACGCGCTCGTTGACTCCGTCCGGAGTCACCTAGTGCAG	9240 fluorescence intensity (a.u.)
AGATTGATCATTTGCATGTACCACTTCCCTTTTTCTCCCTCGGAGTCACCTAGTGCAG	9390 fluorescence intensity (a.u.)
CTTAGCTTGTTTTTATCAGTTCTTACCTTTCTTGATTCTCCGGAGTCACCTAGTGCAG	8070 fluorescence intensity (a.u.)
